Laboratory results from doi:10.1101/2025.03.25.645244.
No constants are given. Whether binding was seen depends on the method and setting.

By UniProt entry, the sequences of proteins in these tests, tags left out.
UniProt Q9UJC5: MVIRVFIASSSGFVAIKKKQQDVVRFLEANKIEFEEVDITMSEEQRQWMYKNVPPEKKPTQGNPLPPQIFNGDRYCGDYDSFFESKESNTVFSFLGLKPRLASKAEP
UniProt Q9H299: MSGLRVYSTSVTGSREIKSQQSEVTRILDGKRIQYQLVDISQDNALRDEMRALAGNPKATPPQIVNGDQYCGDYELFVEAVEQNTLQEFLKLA

Assays:
human SH3BGRL-2 (human) = human SH3BGRL-2 (human) (UniProt Q9UJC5); assay: AUC
human SH3BGRL-3 (human) = human SH3BGRL-3 (human) (UniProt Q9H299); assay: AUC

binding (human SH3BGRL-2 (human)) | binding (human SH3BGRL-3 (human)) | Substance
no binding (tested: 17 µM) | – | human SH3BGRL-2 (from UniProt Q9UJC5 1-107)
– | no binding | human SH3BGRL-3 (from UniProt Q9H299 1-93)
